About 3,700 (1.2%) of roughly 300,000 compounds were called active. This list was built around the results that the source calls inconclusive (neither active nor inactive); the mix of calls is not that of the screen. Calls come from the whole dose curve; tested in HEK293 cells. Where the call is inconclusive, the potency comes from a doubtful curve fit.
Experiment: qHTS for Inhibitors of binding or entry into cells for Lassa Virus; note: nearly all actives have a fitted effect of over 50% in size
Settings: Lassa virus pseudotype entry inhibition, cell reporter; activity change, negative = inhibition: at 37.9 µM (top of the series) unless noted
% is set by controls: 0 for no effect and ±100 for the full control effect; potency is the fitted concentration of half-maximal effect.

Structure (SMILES) | Potency | activity change, negative = inhibition
CCOc1ccc(Cl)cc1/C=N/NC(=O)CNC(=O)c1ccccc1 | inconclusive: 9.2 µM [inhibitor, partial curve] | –
Cc1cc(C)nc(NC(=NCCc2c[nH]c3ccccc23)NC(=O)Nc2cccc([N+](=O)[O-])c2)n1 | – | inactive: -0.0851%
O=C(C1CCN(S(=O)(=O)N2CCOCC2)CC1)N1CCN(c2ccc(F)cc2)CC1 | – | inactive: 0.579% [at 46.1 µM]
CCc1cccc(CC)c1NC(=O)C1CCN(C(=O)c2ccco2)CC1 | – | inactive: 0.175%
Cc1noc2ncnc(N3CCCC(C(=O)NC(C)C)C3)c12 (stereo not drawn) | – | inactive: 15.9% [at 46.1 µM]
COc1ccc(CCNC(=S)NCCc2c[nH]c3ccccc23)cc1 | inconclusive: 6.51 µM [inhibitor, partial curve] | –
OC[C@H]1O[C@@H](n2cnc3c(Nc4ccccc4)ncnc32)[C@H](O)[C@@H]1O | inconclusive: 3.66 µM [activator, full curve] | –
CCn1c(NCc2ccc(OC)c(OC)c2)nc2ccccc21 | – | inactive: -8.19% [at 46.1 µM]
NC(=S)N=Nc1c(O)[nH]c2c(Cl)cc(Cl)cc12 | inconclusive: 35.5 µM [inhibitor, single point] | –
CCc1ccc(N2NC(=O)/C(=C/C=C/c3ccco3)C2=O)cc1 | – | inactive: -24.5%
COc1ccccc1C(=O)OCc1cc(=O)n2nc(C3CCCCC3)sc2n1 | inconclusive: 12.6 µM [activator, single point] | –
O=C(c1cc(C2CC2)nc2ccc(Br)cc12)N1N=C(C(F)F)CC1(O)C(F)F (stereo not drawn) | inconclusive: 18.3 µM [inhibitor, single point] | –
Cc1ccc(-n2nc3c(c2NC(=O)c2c(-c4ccccc4Cl)noc2C)CSC3)cc1 | inconclusive: 0.82 µM [inhibitor, full curve, poor fit] | –
CCOC(=O)C1CCN(S(=O)(=O)c2cc(Br)cc3c2N(C(C)=O)C(C)C3)CC1 (stereo not drawn) | inconclusive: 25.9 µM [inhibitor, partial curve, poor fit] | –
COc1ccc(NC(=O)C(=O)N/N=C\c2ccc(CNC(=O)C(=O)Nc3ccc(C)c(C)c3)o2)c(OC)c1 | inconclusive: 6.31 µM [inhibitor, single point] | –
Cc1cc(Cl)ccc1OCCCC(=O)NCC1CCCO1 (stereo not drawn) | inconclusive: 0.58 µM [activator, single point] | –
O=C(NCc1ccc2[nH]c3c(c2c1)CCCC3)c1ccc(S(=O)(=O)N2CCCC2)cc1 | inconclusive: 29.1 µM [inhibitor, single point] | –
Clc1ccccc1OCCCOc1cccc2cccnc12 | inconclusive: 10 µM [inhibitor, single point] | –
CCCCCn1c(CCCNC(=O)c2cccc(C)c2)nc2ccccc21 | inconclusive: 31.6 µM [inhibitor, single point] | –
Cc1[nH]c2ccc(-c3nnc(SCC(=O)c4ccc(F)cc4)o3)cc2c1C | active: 9.2 µM | –
CCN(CC)S(=O)(=O)c1ccc(N2CCCCC2)c(NC(=O)/C=C/c2cc(OC)c(OC)c(OC)c2)c1 | inconclusive: 6.31 µM [inhibitor, full curve, poor fit] | –
O=C(CCCOc1ccccc1)NCC1CCCO1 (stereo not drawn) | – | inactive: 14.8%

Structure (SMILES) | Potency | activity change, negative = inhibition
N=c1n(N)c2ccccc2n1CC(=O)c1ccc(Br)cc1 | inconclusive: 1.78 µM [activator, partial curve, poor fit] | –
COc1ccc(NC(=O)c2ccc(NC(=O)CCS(=O)(=O)c3cccs3)cc2)cc1OC | – | inactive: 2.17% [at 46.1 µM]
COc1cccc(OCc2cc(C(=O)NCc3ccccn3)no2)c1 | – | inactive: -4.3% [at 46.1 µM]
COc1ccc(CCNc2ncnc3cc(OC)c(OC)cc23)cc1OC | inconclusive: 11.2 µM [inhibitor, partial curve, poor fit] | –
COc1ccc(C(=O)NC(=S)Nc2cccc(S(=O)(=O)N3CCOCC3)c2)cc1 | inconclusive: 1.26 µM [inhibitor, single point] | –
C=CCNC(=S)Nc1cccc2ccccc12 | – | inactive: -14.8%
O=C1c2cccnc2C(Nc2ccc(Cl)cc2)N1Cc1cccs1 (stereo not drawn) | – | inactive: -17.5%
COCc1ccc(CN2CCC(C(=O)Nc3cccc(-c4cccc(Cl)c4)c3)CC2)o1 | inconclusive: 35.5 µM [inhibitor, single point] | –
Cc1cccc(Cn2c(COc3ccccc3)nc3ccccc32)c1 | – | inactive: -1.2% [at 46.1 µM]
O=C(CSc1nnc(-c2cccs2)n1-c1ccccc1)N1CCCc2ccccc21 | inconclusive: 6.51 µM [inhibitor, partial curve] | –
CCn1c2ccccc2c2cc(NC(=O)COc3cc(C)ccc3C)ccc21 | – | inactive: 2.45% [at 46.1 µM]
O=C(/C=C/c1ccc(O)c(O)c1)OC1C(O)CC(OC(=O)/C=C/c2ccc(O)c(O)c2)(C(=O)O)CC1O (stereo not drawn) | inconclusive: 7.94 µM [activator, partial curve, poor fit] | –
C/C(=N\NC(=O)c1c(Br)c(C)nn1C)c1ccc(NC(=O)C(C)Oc2ccc(Cl)cc2C)cc1 (stereo not drawn) | inconclusive: 11.2 µM [inhibitor, partial curve] | –
CC(C)(C)c1ccc(OCCOCCn2c(-c3ccc(Cl)cc3)nc3ccccc3c2=O)cc1 | inconclusive: 7.08 µM [activator, full curve, poor fit] | –
COc1ccccc1C(=O)Nc1ccc2c(c1)nc(CCNC(=O)c1ccccc1)n2C | inconclusive: 3.98 µM [inhibitor, single point] | –
CC(C)Oc1ccc(CNC(=O)C2CCN(Cc3cc4ccccc4n3Cc3ccccc3)CC2)cc1 | – | inactive: -26.1% [at 46.1 µM]
CN(c1ccccc1)c1ccc(/C=C/[N+](=O)[O-])cc1 | inconclusive: 11.2 µM [inhibitor, partial curve, poor fit] | –
Cc1ccc2c(c1)cc(C(=O)NCc1ccccc1C)n2C | inconclusive: 3.16 µM [inhibitor, full curve] | –
COc1ccc(COC(=O)CN2C(=O)NC3(CCCC3)C2=O)cc1F | inconclusive: 28.2 µM [activator, single point] | –
CCOc1ccc(CNC(=O)c2ccc3c(c2)nc2n3CCCCC2)cc1 | inconclusive: 6.31 µM [activator, single point] | –

Look-ups from the results shown.
activity change, negative = inhibition, CCc1ccc(N2NC(=O)/C(=C/C=C/c3ccco3)C2=O)cc1 is entered as inactive: -24.5%
Potency, CCOc1ccc(Cl)cc1/C=N/NC(=O)CNC(=O)c1ccccc1 is entered as inconclusive: 9.2 µM [inhibitor, partial curve]
Potency, COc1ccc(CCNC(=S)NCCc2c[nH]c3ccccc23)cc1 is entered as inconclusive: 6.51 µM [inhibitor, partial curve]

Reference: PubChem BioAssay AID540256 (National Center for Advancing Translational Sciences (NCATS), 2011)
